Results are given in words; binding and its absence hold for the method and conditions named. Binding seen in cells or lysates may run through a third protein. Some binding calls cover weakened binding; strength is not graded here.
Columns and labels:
[1] = molecular target: GFP-NEDD1 (1–571) (human) (UniProt Q8NHV4); experiment: co-IP; full length Myc-NEDD1 and GFP-NEDD1 constructs co-transfected into HEK293T, GFP-NEDD1 immunoprecipitated, Myc-NEDD1 detected
[2] = molecular target: GFP-NEDD1 CTD (572–660) (human) (UniProt Q8NHV4); experiment: as above

Amino acid sequences for entries named in this document (tags omitted). A change or cut given only in a name is not applied to a line headed by its entry. Residues count along the entry.
UniProt Q8NHV4: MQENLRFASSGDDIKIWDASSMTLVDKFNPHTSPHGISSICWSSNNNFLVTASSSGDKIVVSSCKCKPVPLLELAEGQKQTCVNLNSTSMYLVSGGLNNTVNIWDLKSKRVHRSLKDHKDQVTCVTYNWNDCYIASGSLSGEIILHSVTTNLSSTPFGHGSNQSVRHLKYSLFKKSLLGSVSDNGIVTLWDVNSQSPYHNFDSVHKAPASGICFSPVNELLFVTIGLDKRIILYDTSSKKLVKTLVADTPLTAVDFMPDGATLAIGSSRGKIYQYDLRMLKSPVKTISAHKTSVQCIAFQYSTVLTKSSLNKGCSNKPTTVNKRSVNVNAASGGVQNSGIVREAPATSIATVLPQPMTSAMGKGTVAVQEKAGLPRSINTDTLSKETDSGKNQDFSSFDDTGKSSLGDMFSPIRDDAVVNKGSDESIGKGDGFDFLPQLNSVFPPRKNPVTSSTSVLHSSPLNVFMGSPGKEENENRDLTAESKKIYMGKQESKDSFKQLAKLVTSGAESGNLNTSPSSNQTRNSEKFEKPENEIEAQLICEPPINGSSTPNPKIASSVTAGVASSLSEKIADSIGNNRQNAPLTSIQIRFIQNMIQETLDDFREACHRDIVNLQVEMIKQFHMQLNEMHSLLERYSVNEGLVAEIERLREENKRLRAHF
GFP-NEDD1 (1–571): residues 1-571 of Q8NHV4
GFP-NEDD1 CTD (572–660): residues 572-660 of Q8NHV4

- binding [1]: no binding
- binding [2]: binds
Substance: Myc-NEDD1 full length (660 aa) (from UniProt Q8NHV4 1-660)

Reference: PMC2835750, “A Direct Interaction with NEDD1 Regulates γ-Tubulin Recruitment to the Centrosome” (PLoS ONE, 2010)
